# From the supplement of paper PMC10338343
# ± gives the standard deviation. The list shows a part of the results, in another mix than the full data. Many entries were measured with a wide error. The list shows a part of the results.
# Key:
# [1] = tested on: MIWI (PIWIL1) piRISC loaded with L1MC piRNA (30 nt); experiment: pre-steady-state target cleavage rate (min^-1); higher = faster piRNA-guided slicing of the target; details: guide: L1MC piRNA 5'p-UAACUAAAUACUAUGCAAGCUGUAGGUCCU;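 note: 1 nM active piRISC with 0.1 nM target library at 33 °C single turnover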
# Procedure, shortened: (§1)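 Reactions were run for 0–8 or 0–960 min at 33 °C in HEPES–potassium acetate buffer, combining 1 nM active affinity-purified piRISC with one synthetic guide, […] transcribed, DNA-blocked target RNA library and, in some cases, 500 nM GTSF1 partner protein. Sequencing of uncleaved targets followed, with normalisation to depth and to weakly complementary targets. Three trials were pooled, k3 was capped at 0.0001 min^-1, and the pre-steady-state cleavage rate was taken from a burst-and-steady-state fit.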
# [2] = tested on: EfPiwi piRISC loaded with L1MC piRNA (26 nt); experiment: pre-steady-state target cleavage rate (min^-1); guide: L1MC piRNA 5'p-UAACUAAAUACUAUGCAAGCUGUAGG; MIWI and MILI are mouse PIWI proteins and EfPiwi is from a freshwater sponge; tags in brackets are library labels; higher = faster piRNA-guided slicing of the target
# Procedure, shortened: as §1
# [3] = auxiliary factor: none (no GTSF1)
# [4] = auxiliary factor: 500 nM Ephydatia muelleri Gtsf1
# [5] = auxiliary factor: none (no Gtsf1)
Sequence,"pre-steady-state target cleavage rate [1, 3]","pre-steady-state target cleavage rate [2, 4]","pre-steady-state target cleavage rate [2, 5]",pre-steady-state target cleavage rate ([1]; auxiliary factor: 500 nM mouse GTSF1)
UCCUGGAUGUGCAACCAUAGUAUUUAGUUA,0.000684 ± 0.011,0.000363 ± 0.013,0.000325 ± 0.02,–
UCCUGGAUCAGCUACCAUAGUAUUUAGUUA,0.00173 ± 0.0048,0.00516 ± 0.0032,0.000753 ± 0.0086,–
UCCUGGAUGAGGAAGCAUAGUAUUUAGAAA,0.000378 ± 0.01,0.000581 ± 0.0076,0.000262 ± 0.026,–
UCCUGCUACAGCUUGCAUAGUUAUUUCAAA,0.000798 ± 0.0089,0.00134 ± 0.0046,0.000476 ± 0.016,–
UCCUGCUACAGCUUGCAUACAUUUUAGUAA,0.000564 ± 0.015,0.000176 ± 0.025,< 0.0001,–
UCCUGCUACAGCUUGCAUAGUAUUUUGAAA,0.00191 ± 0.0033,0.0045 ± 0.0018,0.00017 ± 0.023,–
UCCUGCUACACCUUGCAUAGUAUUUUCAAA,0.00169 ± 0.0042,0.00244 ± 0.0022,0.000423 ± 0.014,–
UCCUGCUACAGCUUGCACUAGUAUUUAGUUA,0.000634 ± 0.013,0.00557 ± 0.0023,0.000639 ± 0.0082,–
UCCUGCUACAGCUUGCAUAGUAUUAGUUA,0.00126 ± 0.0052,0.00404 ± 0.0022,0.000518 ± 0.0096,–
UCCUGGAUGUCCAAGCAUAGUAUUUAGUUA,0.00164 ± 0.005,0.00166 ± 0.0034,0.000342 ± 0.019,–
UCCUGGAUCAGCUUCGAUAGUAUUUACAAA,0.000763 ± 0.0083,0.00102 ± 0.0072,0.000109 ± 0.043,–
UCCUGCUACAGCUUGCAUAGAUAUUAGUAA,0.000193 ± 0.02,0.00195 ± 0.0038,0.000364 ± 0.015,–
UCCUCCUACAGCUUGCAAUCUAUUUACAAA,0.000257 ± 0.014,0.000611 ± 0.007,0.000216 ± 0.027,–
UCCUGGAUGUCGAACCAUUCAAUUUAGUUA,0.000491 ± 0.0085,< 0.0001,< 0.0001,–
UCCUGGAUGUGCUUGCUUUGUAUUUAGUUA,–,0.000391 ± 0.01,0.000424 ± 0.026,0.00305 ± 0.0034
UCCUGGAACAGGAUGCAUAGUAUUUUCAAA,0.000604 ± 0.0091,0.00106 ± 0.0027,0.00031 ± 0.018,–
UCCUGGAUGUCGAAGCAUACUAUUUAGAUA,0.000608 ± 0.014,0.0007 ± 0.009,0.000197 ± 0.028,–
UCCUGGAUGUCCUUGCAAAGUAUUUAGUAA,0.00232 ± 0.0026,0.00159 ± 0.0042,0.000475 ± 0.012,–
UCCUGGAUGUGGUUGCAUAGUAUUAAGUUA,0.00331 ± 0.004,0.00101 ± 0.0065,0.00162 ± 0.009,–
UCCUCCAUCAGCUUGCAUAGUAUUUUCAAA,0.00248 ± 0.0027,0.00384 ± 0.0024,0.00033 ± 0.016,–
UCCUGGUACAGCAUGCAUAGUAUUUACAAA,0.00151 ± 0.0053,0.00193 ± 0.0023,0.00025 ± 0.034,–
UCCUGGAUGUGGUUGCAUAGUAUAUAGUUA,0.00243 ± 0.0046,0.00747 ± 0.0056,0.000612 ± 0.022,–
UCCUGGAUGAGGUUGCAUUGUAUUUAGUUA,0.00204 ± 0.0053,0.00262 ± 0.0027,0.000514 ± 0.017,–
UCCUCCUACAGCUUGCAUAGUAAAUACAAA,0.000542 ± 0.014,0.00363 ± 0.003,0.00053 ± 0.018,–
UCCUGCUACACGUUGCAUAGUAUUUUCAAA,0.000593 ± 0.011,0.000548 ± 0.0063,0.000291 ± 0.025,–
UCCUGGAUGUCGUUGUAUAGUAUUUAGUUA,0.00237 ± 0.0027,0.00311 ± 0.0038,0.000409 ± 0.031,–

Sequence,"pre-steady-state target cleavage rate [1, 3]","pre-steady-state target cleavage rate [2, 4]","pre-steady-state target cleavage rate [2, 5]",pre-steady-state target cleavage rate ([1]; auxiliary factor: 500 nM mouse GTSF1)
UCCUGGAUGUCGAUGCAUAGUAUAUAGUUA,0.000955 ± 0.0071,0.00162 ± 0.005,0.000613 ± 0.0088,–
UCCUGGUACAGCUUGCAUACAAUUUACAAA,0.00108 ± 0.0074,0.00157 ± 0.0061,0.000351 ± 0.021,–
UCCUGGAUGUCCUUGCAAAGUUUUUAGUUA,0.00192 ± 0.0037,0.000263 ± 0.011,0.000177 ± 0.042,–
UCCUGGAUGUGCUAGCUUAGUAUUUAGUUA,0.00238 ± 0.0041,0.0024 ± 0.0057,0.000337 ± 0.024,–
UCCUCCUACAGCUUGCAUAGAUUUUUCAAA,0.000516 ± 0.0098,0.00124 ± 0.0037,0.000191 ± 0.017,–
UCCUCCUACAGCUUGCAUAGCUAUUUAGUUA,0.00177 ± 0.0044,0.00189 ± 0.0023,0.00037 ± 0.013,–
UCCUGGAUGUGCUUGCAAGUAUUUAGUUA,0.00174 ± 0.004,0.00109 ± 0.0076,0.00049 ± 0.017,–
UCCUGGUACAGCUUGGUAAGUAUUUAGUUA,0.00217 ± 0.0041,0.00282 ± 0.0054,0.00049 ± 0.03,–
UCCUGGAUGUCGUUGCAUAGUAUUUAAUUA,0.00181 ± 0.005,0.00205 ± 0.0045,0.00061 ± 0.013,–
UCCUCCUACAGCUUGCAUAGUAUUAUGAAA,0.00182 ± 0.0044,0.00358 ± 0.0025,0.000479 ± 0.011,–
UCCUGGAUGAGCUUGCUUUGUAUUUAGUUA,0.00156 ± 0.0031,0.000457 ± 0.011,0.00106 ± 0.0085,–
UCCUGGAUGAGGUUGGAUAGUAUUUAGUUA,0.000871 ± 0.0083,0.00162 ± 0.0075,0.000418 ± 0.02,–
UCCUGGAUGAGCUUGCAUACAUUUUAGUUA,0.00107 ± 0.0066,0.000347 ± 0.0095,0.000177 ± 0.039,–
UCCUGGAUGUCGUGGCAUAGUAUUUAGUUA,0.00269 ± 0.0036,0.00281 ± 0.0046,0.000309 ± 0.032,–
UCCUGGAACAGCUUGCUAGUAUUUAGUUA,0.00225 ± 0.0032,0.00264 ± 0.0038,0.00151 ± 0.0067,–
UCCUGGAUGUGCAUGCAUAGUAAUUAGUUA,0.00265 ± 0.0028,0.00135 ± 0.0031,0.000802 ± 0.01,–
UCCUGGAACAGCUUGGUUAGUAUUUACAAA,0.00121 ± 0.0056,0.00162 ± 0.003,0.00017 ± 0.051,–
UCCUGGAUGUCGAAGCAUAGUAUAUUAGUUA,0.00129 ± 0.0074,0.000242 ± 0.02,< 0.0001,–
UCCUGGAUCAGCUUGCAAUCUAUUUACAAA,0.000764 ± 0.011,0.000894 ± 0.0064,0.000127 ± 0.052,–
UCCUGGAUGUGCUUGCAUAGUAUUUUCUAA,0.00234 ± 0.0031,0.00171 ± 0.0043,0.000202 ± 0.047,–
UCCUGGAUGUCCAUGGAUAGUAUUUAGUUA,0.000768 ± 0.0081,0.000389 ± 0.0074,0.0004 ± 0.015,–
UCCUGGAUGUCGAUGCAUAGUAUUAUCAAA [g7:g17:cont:t1A],0.000601 ± 0.0088,0.000775 ± 0.0076,0.000261 ± 0.018,–
UCCUGCUACAGCUUGCAUAGUAAUUACAAA,0.000594 ± 0.015,0.00259 ± 0.0018,0.000246 ± 0.021,–
UCCUGGAUGUCGAUGGCAUAGUAUUUAGUUA,0.00143 ± 0.0068,0.00329 ± 0.0037,0.000908 ± 0.0097,–
UCCUCCUACAGCUUCCAUAGUAUAUAGUUA,0.0013 ± 0.0057,0.00246 ± 0.0022,< 0.0001,–

# Complete entries from above. Values in the order: pre-steady-state target cleavage rate [1, 3]	pre-steady-state target cleavage rate [2, 4]	pre-steady-state target cleavage rate [2, 5]	pre-steady-state target cleavage rate ([1]; auxiliary factor: 500 nM mouse GTSF1)
# UCCUCCUACAGCUUGCAUAGCUAUUUAGUUA is entered as 0.00177 ± 0.0044	0.00189 ± 0.0023	0.00037 ± 0.013	–
# UCCUCCUACAGCUUCCAUAGUAUAUAGUUA is entered as 0.0013 ± 0.0057	0.00246 ± 0.0022	< 0.0001	–
# UCCUGGUACAGCUUGGUAAGUAUUUAGUUA is entered as 0.00217 ± 0.0041	0.00282 ± 0.0054	0.00049 ± 0.03	–
